No constants are given. Whether binding was seen depends on the method and setting. For part of these data: In cells and extracts the contact can be indirect. Some binding calls cover weakened binding; strength is not graded here.
biological target: Human serum albumin Domain I (human) (UniProt P02768); experiment: ELISA, clone lysate on coated HSA domain constructs

By UniProt entry, the sequences of proteins in these tests, tags left out. Residues count along the entry.
Human serum albumin Domain I (P02768, residues 25-221): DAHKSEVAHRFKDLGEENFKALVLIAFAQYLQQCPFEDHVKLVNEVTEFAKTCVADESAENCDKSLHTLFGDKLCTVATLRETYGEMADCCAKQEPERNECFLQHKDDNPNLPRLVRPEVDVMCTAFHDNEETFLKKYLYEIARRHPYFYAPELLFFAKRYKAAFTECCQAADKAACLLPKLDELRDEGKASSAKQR
Human serum albumin Domain III (P02768, residues 405-609): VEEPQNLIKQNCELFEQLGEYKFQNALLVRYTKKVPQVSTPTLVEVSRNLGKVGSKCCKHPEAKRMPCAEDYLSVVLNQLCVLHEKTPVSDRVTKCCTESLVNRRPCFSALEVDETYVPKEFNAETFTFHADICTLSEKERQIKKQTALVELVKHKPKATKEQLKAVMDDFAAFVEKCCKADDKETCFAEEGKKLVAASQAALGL

Binder	binding
ALB-E07 (designed binder) LPAPKNLVVSRVTEDSARLSWTAPDAAFDSFKILYEEYLVFGEAIVLTVPGSERSYDLTGLKPGTEYWVAIWGVKGGQVSGTLSAIFTT	binds

biological target: Human serum albumin Domain III (human) (UniProt P02768); experiment: as above

Binder	binding
ALB-E05 (designed binder) LPAPKNLVVSRVTEDSARLSWTAPDAAFDSFQIEYWEDDVGGEAIVLTVPGSERSYDLTGLKPGTEYDVYILGVKGGWESGPLSAIFTT	binds
ALB-H9 (designed binder) LPAPKNLVVSRVTEDSARLSWTAPDAAFDSFHIEYWEQSIVGEAIVLTVPGSERSYDLTGLKPGTEYRVWIYGVKGGNDSWPLSAIFTT	binds

biological target: T1, Human Serum Albumin (human, UniProt P02768 25-609); experiment: IMAC pull-down of endogenous albumin from normal serum, SDS-PAGE
T1 construct: also called HSA

Binder	binding
ALB33 (designed binder) LPAPKNLVVSEVTEDSARLSWTAPDAAFDSFLIQYQESEKVGEAIVLTVPGSERSYDLTGLKPGTEYTVSIYGVKGGHRSNPLSAIFTTGGGGSGGGGSGGGGSGGGGSLPAPKNLVVSRVTEDSARLSWTAPDAAFDSFKILYEEYLVFGEAIVLTVPGSERSYDLTGLKPGTEYWVAIWGVKGGQVSGTLSAIFTTHHHHHH	binds
ALB34 (designed binder) LPAPKNLVVSEVTEDSARLSWTAPDAAFDSFLIQYQESEKVGEAIVLTVPGSERSYDLTGLKPGTEYTVSIYGVKGGHRSNPLSAIFTTGGGGSGGGGSGGGGSGGGGSLPAPKNLVVSRVTEDSARLSWTAPDAAFDSFHIEYWEQSIVGEAIVLTVPGSERSYDLTGLKPGTEYRVWIYGVKGGNDSWPLSAIFTTHHHHHH	binds
ALB35 (designed binder) LPAPKNLVVSRVTEDSARLSWTAPDAAFDSFHIEYWEQSIVGEAIVLTVPGSERSYDLTGLKPGTEYRVWIYGVKGGNDSWPLSAIFTTGGGGSGGGGSGGGGSGGGGSLPAPKNLVVSEVTEDSARLSWTAPDAAFDSFLIQYQESEKVGEAIVLTVPGSERSYDLTGLKPGTEYTVSIYGVKGGHRSNPLSAIFTTHHHHHH	binds
ALB18 (designed binder) LPAPKNLVVSEVTEDSARLSWTAPDAAFDSFLIQYQESEKVGEAIVLTVPGSERSYDLTGLKPGTEYTVSIYGVKGGHRSNPLSAIFTTGGGGSGGGGSGGGGSGGGGSLPAPKNLVVSRVTEDSARLSWTAPDAAFDSFQIEYWEDDVGGEAIVLTVPGSERSYDLTGLKPGTEYDVYILGVKGGWESGPLSAIFTTHHHHHH	binds
ALB30 (designed binder) LPAPKNLVVSRVTEDSARLSWTAPDAAFDSFQIEYWEDDVGGEAIVLTVPGSERSYDLTGLKPGTEYDVYILGVKGGWESGPLSAIFTTGGGGSGGGGSGGGGSGGGGSLPAPKNLVVSEVTEDSARLSWTAPDAAFDSFLIQYQESEKVGEAIVLTVPGSERSYDLTGLKPGTEYTVSIYGVKGGHRSNPLSAIFTTHHHHHH	binds
ALB21 (designed binder) LPAPKNLVVSRVTEDSARLSWTAPDAAFDSFKILYEEYLVFGEAIVLTVPGSERSYDLTGLKPGTEYWVAIWGVKGGQVSGTLSAIFTTGGGGSGGGGSGGGGSGGGGSLPAPKNLVVSEVTEDSARLSWTAPDAAFDSFLIQYQESEKVGEAIVLTVPGSERSYDLTGLKPGTEYTVSIYGVKGGHRSNPLSAIFTTHHHHHH	binds
